Assay results published in paper PMC8795117.
Results are given in words; binding and its absence hold for the method and conditions named.

Target: IndC (Streptomyces chromofuscus) (UniProt K4MP98)
Test: SEC; gel filtration of the purified embedded BmdB–BmdC constructs and of IndC, each alone (Fig. 5d); both purified

- binding: no binding
B1: IndC (enzyme, UniProt K4MP98 1-1377)
chain: MSVETIPCSRRAALGLPGLLRERARATPDRTAAVHEHQSLTFAQLTEDSSHVGALLRQAGVGRDSRVGVFMEPSLDLLTGVWGILWAGGCYVPLSPEYPEERIAYMLADAGVDIVLTQEFLRSTLQELAPAGVVVLTLDEMLRTAERDGSAFGRPEPEVRPDDLAYVIYTSGSTGKPKGVMVEHRSIVSQMRWLHDECGIDENEIILQKTPMSFDAAQWELLALACGSTVVMGSSGIYRDPEAIISTVQRHGVTTLQCVPTLLQALLDTEKFPDCGTLRRIFSGGEALSRSLAAQCLDTMPGARLVNLYGPTECTINASSFVVDRAALEDGPLVMPIGTPVHDTSLHVLRPDGAPVSAGEIGELYIGGVQVARGYLGRPDLTGDRFMADPFSDAPGSRLYRTGDLAHVNADGTVQFVGRADNQVKLRGYRVELDEIRQTVETHDWVRAAAVLLRDDATTGFQNLVAFVELNPKEAALMDQGNHGSHHQSKASRLQVRAQLAHPGCRDDADLAGRAAIDLPGAEATPGQRALAFSRKTYRFYEGSPVTRDDILHLLGPRPRPRPSARTSDIVGRDELGTILRNFGRHLSDQRLLPKYAYASPGSLYATQLYVEIGGGHDVPAGLYYYHPLHHRLVLVGPASETETSPVRIHFLGKHGAIEPVYRNNVREVLEIEAGHMVGLFEEVLPAHGLRIAAAAYQPAVRHRLDCAPEDHYLGSFDLLPQARGASEDTDTLDIYVQAHSTRIEGLPPGQYRYTGAGLVRIGDDVILKKHVIAINQRVYERSDFGISLVATGSASWRRYLDLGRGLQRLQMNDLHLGFMSSGYSSKSGNDLPSAKRLGRILADGGLPAGPSYFCVGGRVSDAQWRGEDMKEDVVHMQGPAELIKEDLAALLPRYMLPNRIVVLDRLPQTANGKIDLKALQTTQEAQLTVGERAFMAPRTPLERRIRDIWQAVLKRDQVSVTDDFFELGGNSLLAVALVSRLNADFGGAIPLQILFEAPTVERLAAALEATSPRPASRLVPLQPEGRGTPLYCWPGLGGYPMNLRPLAAALGTERPVHGVQAHGINPGEFPYDDVRAMAAADVEAIREIQPHGPYLLCGYSFGARVAFEAARQLEQAGEQVEQLFLVAPGQPRLRPEDAVGATGRADFTDRAFLALLFSVFAGTLSGPRLDQCLRTVTDEDGFVAFVTASFPGLGEELVRAVTGIVRRTYSLTYEFHELRGRRLDAPVTLVRATDDNYSFIEHEGGYSARPPAVHQLRSGHYELLREPHVARLAAVLNDRLSAGPSTSPRHSQPAQATVQEVGVPHINIKHFPVSITEEKELELVAAVTTAVRNAFGCTEEVVSIALEPVAQEVWNERVYIPEIVARQELLRKTPNY
